# Measured values as given in PubChem BioAssay AID1508615 (Milbrandt Lab, Department of Genetics, Washington …, 2020).
# Sequences of proteins named here, by UniProt entry; tags and fusion partners are left off. A change or cut given only in a name is not applied to a line headed by its entry.
# UniProt Q6SZW1: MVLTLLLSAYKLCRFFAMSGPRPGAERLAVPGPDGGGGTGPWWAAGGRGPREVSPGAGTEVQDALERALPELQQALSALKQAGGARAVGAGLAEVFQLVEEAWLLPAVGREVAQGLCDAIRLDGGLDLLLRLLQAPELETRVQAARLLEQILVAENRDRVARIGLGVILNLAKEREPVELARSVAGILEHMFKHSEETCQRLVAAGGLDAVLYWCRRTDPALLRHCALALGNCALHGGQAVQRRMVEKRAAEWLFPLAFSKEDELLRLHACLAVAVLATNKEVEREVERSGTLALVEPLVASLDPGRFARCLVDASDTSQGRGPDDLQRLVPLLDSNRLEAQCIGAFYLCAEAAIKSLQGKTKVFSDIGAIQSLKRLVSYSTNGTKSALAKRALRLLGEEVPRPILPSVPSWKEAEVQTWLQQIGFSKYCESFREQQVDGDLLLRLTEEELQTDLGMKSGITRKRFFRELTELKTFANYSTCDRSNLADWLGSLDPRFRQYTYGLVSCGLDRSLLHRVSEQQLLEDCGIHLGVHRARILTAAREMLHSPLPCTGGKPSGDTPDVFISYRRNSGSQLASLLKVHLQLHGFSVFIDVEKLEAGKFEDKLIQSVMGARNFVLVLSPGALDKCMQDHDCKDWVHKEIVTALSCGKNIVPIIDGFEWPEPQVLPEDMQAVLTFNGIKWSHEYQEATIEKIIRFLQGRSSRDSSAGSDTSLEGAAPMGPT
# Hit rate of the full screen: of about 1,600 compounds, about 20 (1%) were called active.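 How the source made its calls: active means ratio of uncleaved NAD to its breakdown product ADP-ribose above 4, meaning the enzyme was inhibited; inactive means the rest.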 The list shows a part of the results.
# Molecular target: NAD(+) hydrolase SARM1 (Homo sapiens) (UniProt Q6SZW1)
# Experiment: inhibition of SAM-TIR NAD hydrolysis to ADPR – cell lysate, HPLC readout, primary screen (AID 1508615);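 further: substrate NAD at 5 µM with 60 min at 37 °C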
# Conditions: HEK293T SAM-TIR lysate, NAD/ADPR ratio by HPLC; at 5 µM; stronger effect = higher value
row,SMILES,NAD/ADPR ratio
1,Cc1cc(=S)[nH]c(=S)[nH]1,inactive: 3
2,Nc1ncnc2c1ncn2C1C=C(CO)C(O)C1O (stereo unspecified),inactive: 3
3,S=C(Nc1ccccc1)Nc1nccs1,inactive: 3
4,CC1OC(Oc2c(-c3cc(O)c(O)c(O)c3)oc3cc(O)cc(O)c3c2=O)C(O)C(O)C1O (stereo unspecified),inactive: 3
5,CCOC(=O)CC1(C)NC(C(=O)O)C(C)(C)S1 (stereo unspecified),inactive: 3
6,CS(=O)(=O)Nc1nc2ccccc2[nH]1,inactive: 3
7,Cc1c(N2CCCC2)cc2c(c1NC(=O)c1ccccc1Cl)C(C)(C)CC2(C)C,inactive: 3
8,Nc1ccc(Br)cc1Br,inactive: 3
9,O=c1cc(-c2cccnc2)oc2c1ccc1ccccc12,inactive: 3
10,CCCCOc1ccc(Nc2cc(Cl)ccc2C(=O)O)cn1,inactive: 3
11,CCOC(=O)C(C#N)C(=N)C1C(=O)OC2CCCCC21 (stereo unspecified),inactive: 3
12,Nc1[nH]nc2nc(-c3ccccc3)[nH]c(=O)c12,inactive: 3
13,Nc1ncnc2c1ncn2C1OC(COS(N)(=O)=O)C(O)C1O (stereo unspecified),inactive: 3
14,S=c1[nH]ccn1-c1ccccc1Cl,inactive: 3
15,CN1CCc2ccccc2C1Cc1ccccc1NC(=O)c1sc2ccccc2c1Cl (stereo unspecified),inactive: 3
16,NS(=O)(=O)c1ccc(NC2(C(=O)O)CCCC2)cc1,inactive: 3
17,CCCCSc1ncnc2[nH]ncc12,inactive: 3
18,COCC(=O)OC1CCn2c1nc1c2C(=O)C(C)=C(NC(C)=O)C1=O (stereo unspecified),inactive: 3
19,CC(=O)Nc1nc(C)c(CCCOc2ccc([N+](=O)[O-])cc2)c(=O)[nH]1,inactive: 3
20,O=C1COc2cccnc2N1,inactive: 3
21,CC(=O)CC(=O)Nc1ccc2ccccc2c1,inactive: 3

# Given with bars between the fields: entries from further up
row | SMILES | NAD/ADPR ratio
1 | Cc1cc(=S)[nH]c(=S)[nH]1 | inactive: 3
3 | S=C(Nc1ccccc1)Nc1nccs1 | inactive: 3
4 | CC1OC(Oc2c(-c3cc(O)c(O)c(O)c3)oc3cc(O)cc(O)c3c2=O)C(O)C(O)C1O (stereo unspecified) | inactive: 3
5 | CCOC(=O)CC1(C)NC(C(=O)O)C(C)(C)S1 (stereo unspecified) | inactive: 3
6 | CS(=O)(=O)Nc1nc2ccccc2[nH]1 | inactive: 3
7 | Cc1c(N2CCCC2)cc2c(c1NC(=O)c1ccccc1Cl)C(C)(C)CC2(C)C | inactive: 3
8 | Nc1ccc(Br)cc1Br | inactive: 3
12 | Nc1[nH]nc2nc(-c3ccccc3)[nH]c(=O)c12 | inactive: 3
13 | Nc1ncnc2c1ncn2C1OC(COS(N)(=O)=O)C(O)C1O (stereo unspecified) | inactive: 3
14 | S=c1[nH]ccn1-c1ccccc1Cl | inactive: 3
15 | CN1CCc2ccccc2C1Cc1ccccc1NC(=O)c1sc2ccccc2c1Cl (stereo unspecified) | inactive: 3
16 | NS(=O)(=O)c1ccc(NC2(C(=O)O)CCCC2)cc1 | inactive: 3
18 | COCC(=O)OC1CCn2c1nc1c2C(=O)C(C)=C(NC(C)=O)C1=O (stereo unspecified) | inactive: 3
20 | O=C1COc2cccnc2N1 | inactive: 3
21 | CC(=O)CC(=O)Nc1ccc2ccccc2c1 | inactive: 3

# Further entries:

row,SMILES,NAD/ADPR ratio
1,CCCCc1c(C)[nH]c(=S)[nH]c1=O,inactive: 3
2,CN1CN(C)C(c2ccncc2)=C1c1ccncc1,inactive: 3
3,CC(=O)C1CCC2C3CCC4=CC(=O)CC[C@]4(C)[C@@]3(F)C(O)C[C@]12C (stereo partly specified),inactive: 3
4,Cc1cc(-n2cnc3c(=O)[nH]cnc32)ccc1N,inactive: 3
5,Cc1cc(/C=C2\SC(=S)NC2=O)cc(C)c1O,inactive: 3
6,O=C(O)c1ccc(NCc2nc3ccccc3[nH]2)cc1,inactive: 3
7,CCC1(C(=O)OC)CCc2c(cc(OC)c3ccccc23)C1=O (stereo unspecified),inactive: 3
8,Cc1nnc2nc(N)[nH]n2c1=O,inactive: 3
9,CCOC(=O)Nc1c2ccccc2nc2ccccc12,inactive: 3
10,CS(=O)(=O)Oc1ccc(Br)c2cccnc12,inactive: 3
11,O=C(Nc1ccc2ccccc2c1)c1ccc(Cl)cc1Cl,inactive: 3
12,COc1ccc(Cc2nnc(SC)n2-c2ccc(F)cc2)cc1OC,inactive: 3
13,CCOC(=O)C1CC(=O)c2cc(OC)c(OC)cc2C1 (stereo unspecified),inactive: 3
14,COc1ccc(N=Nc2ccc(N)nc2N)cc1,inactive: 3
15,COc1cc(C(=O)C(=O)c2ccc(O)c(OC)c2)ccc1O,inactive: 3
16,Oc1ccc(Nc2ccc3ccccc3c2)cc1,inactive: 3
17,Cc1nc(C2CCC3C4CCC5=CC(=O)CC[C@]5(C)C4CC[C@]23C)cs1 (stereo partly specified),inactive: 3
18,COc1cc2c(=O)n3c4c(cccc4c2cc1OC)CC3,inactive: 3
19,COc1ccc(C(C)=O)cc1CO/N=C1\CSCc2ccccc21,inactive: 3
20,CCOC(=O)C1C(=O)C(=O)N(C(C)C)C1C(=O)OCC (stereo unspecified),inactive: 3
21,Nc1ncc2[nH]c(N)nc2n1,inactive: 3

row,SMILES,NAD/ADPR ratio
1,O=C(NC1(N2CCOCC2)CC1)c1ccc(Cl)cc1,inactive: 3
2,Nc1ncnc2c1cnn2C1CCCCC1,inactive: 3
3,Nc1nc2c(ncn2C2CCCC2)c(=O)[nH]1,inactive: 3
4,CCCCC(=O)N1CCCC(C)C1 (stereo unspecified),inactive: 3
5,CCN(CC)CCNc1c(C)cc(CO)c(Cl)c1C,inactive: 3
6,CC(=O)Oc1c(C)c(OC(C)=O)c2c(c1C(C)=O)OC1CC(=O)C(C(C)=O)=C(O)C21C (stereo unspecified),inactive: 3
7,Cc1oc2c(c(C)nn2-c2ccccc2)c(=O)c1Cl,inactive: 3
8,O=c1cccc2cc(O)c(O)c(O)c2c1O,inactive: 3
9,CC(C)NC(=O)Nc1cccc(Cl)c1,inactive: 3
10,Cc1c(Cl)cccc1Nc1ncccc1C(=O)OCC(O)CO (stereo unspecified),inactive: 3
11,O=C(Nc1cccc(Cl)c1)Nn1cnnc1,inactive: 3
12,CCN(CC)c1ccc(C(=C2C=CC(=[N+](CC)CC)C=C2)c2ccc(N(CC)CC)cc2)cc1,inactive: 3
13,O=C1C2C3C=CC(O3)C2C(=O)N1Nc1ccccc1 (stereo unspecified),inactive: 3
14,FC(F)(F)c1cccc(-c2nc3nc(Cl)c(Cl)nc3[nH]2)c1,inactive: 3
15,Cc1ccc(C2C=CC(C#N)=CN2Cc2ccccc2)cc1 (stereo unspecified),inactive: 3
16,CCOc1ccc(NC(=O)C2CCCN(C)C2)cc1 (stereo unspecified),active: 11.2
17,CCOC(=O)C(=O)Cc1nc2ccccc2s1,inactive: 3
18,NC(=O)c1ccc(Cl)c2ccccc12,inactive: 3
19,c1ccc(Sc2ncnc3ccccc23)cc1,inactive: 3
